Results on one substance are retold here after article PMC5571219.

The chains behind the UniProt entries cited, without tags or fusion partners. Where a name states a change or a piece, a line headed by the entry shows the natural chain unless it says otherwise.
UniProt P24814: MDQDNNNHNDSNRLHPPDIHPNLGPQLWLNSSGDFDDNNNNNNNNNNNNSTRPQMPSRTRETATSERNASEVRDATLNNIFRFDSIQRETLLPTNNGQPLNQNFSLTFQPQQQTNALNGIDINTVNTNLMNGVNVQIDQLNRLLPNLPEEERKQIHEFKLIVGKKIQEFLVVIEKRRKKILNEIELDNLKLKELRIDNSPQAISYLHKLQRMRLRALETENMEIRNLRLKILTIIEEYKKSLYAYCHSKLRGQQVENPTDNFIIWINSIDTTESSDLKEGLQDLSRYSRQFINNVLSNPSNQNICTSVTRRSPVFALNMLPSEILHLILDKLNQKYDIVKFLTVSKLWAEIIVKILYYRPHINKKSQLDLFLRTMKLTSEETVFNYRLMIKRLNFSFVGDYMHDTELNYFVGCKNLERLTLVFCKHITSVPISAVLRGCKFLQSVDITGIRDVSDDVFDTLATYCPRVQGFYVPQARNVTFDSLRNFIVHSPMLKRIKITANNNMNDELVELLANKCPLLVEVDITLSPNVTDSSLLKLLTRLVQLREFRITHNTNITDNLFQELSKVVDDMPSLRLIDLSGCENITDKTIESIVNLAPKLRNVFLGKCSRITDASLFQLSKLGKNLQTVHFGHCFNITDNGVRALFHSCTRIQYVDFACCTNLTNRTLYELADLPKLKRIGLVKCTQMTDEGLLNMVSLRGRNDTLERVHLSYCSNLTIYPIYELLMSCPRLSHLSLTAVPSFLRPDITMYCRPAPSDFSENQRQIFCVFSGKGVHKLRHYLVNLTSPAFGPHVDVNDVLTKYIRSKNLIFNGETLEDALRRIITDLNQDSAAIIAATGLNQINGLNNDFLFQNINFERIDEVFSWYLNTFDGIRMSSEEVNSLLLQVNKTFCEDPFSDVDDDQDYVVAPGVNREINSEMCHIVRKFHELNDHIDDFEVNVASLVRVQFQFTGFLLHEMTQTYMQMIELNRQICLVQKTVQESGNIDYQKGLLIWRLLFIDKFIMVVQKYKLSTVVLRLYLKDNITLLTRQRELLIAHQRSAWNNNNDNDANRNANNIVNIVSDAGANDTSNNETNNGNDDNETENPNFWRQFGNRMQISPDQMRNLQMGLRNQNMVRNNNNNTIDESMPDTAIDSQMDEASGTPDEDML

This experiment concerns the target T1, HA-tagged wild-type Whi7 (plasmid pWHI7) (S. cerevisiae) (UniProt P36167).
T1 sequence: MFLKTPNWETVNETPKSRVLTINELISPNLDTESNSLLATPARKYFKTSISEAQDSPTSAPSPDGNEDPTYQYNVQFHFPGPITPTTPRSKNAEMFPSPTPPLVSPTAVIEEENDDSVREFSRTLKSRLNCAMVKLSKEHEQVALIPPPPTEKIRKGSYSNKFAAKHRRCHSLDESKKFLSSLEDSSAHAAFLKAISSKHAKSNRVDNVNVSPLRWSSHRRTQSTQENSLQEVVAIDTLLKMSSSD
Briefly: co-IP; HA-tagged Whi7 or Whi5 immunoprecipitated from yeast crude extracts with HA-probe (F-7) antibody on Dynabeads Protein G, 20 min at room temperature; 50 mM Tris-HCl pH 8, 250 mM NaCl, 5 mM EDTA, 0.1% Triton X-100; western blot of input, unbound and immunoprecipitated fractions; for Grr1ΔF-flag cells were grown on raffinose and transferred to galactose for 4 h.

No constants are given. Whether binding was seen depends on the method and setting. In cells and extracts the contact can be indirect. A result given as binding can be weak or reduced; the word gives no strength. Sequences can lack the tags named with a protein.

In the case of “flag-tagged Grr1 lacking its F-box (Grr1ΔF) (from UniProt P24814)”, the binding entry was “binds”.
